These are yes or no findings as the source states them, for the method shown. Binding seen in cells or lysates may run through a third protein. A yes stands for co-enrichment or nearness to the bait. Other partners may have been found.
Target: Pbp1-myc (S. cerevisiae) (UniProt P53297)
Test: affinity purification with mass spectrometry; cells unstressed or glucose-depleted (10 min for Dcp1-myc, 60 min for Pbp1-myc), cross-linked with 0.8% formaldehyde; 20,000 g pellet of the lysate in Blob100 buffer (20 mM Tris-HCl pH 8, 100 mM NaCl, 1 mM MgCl2, 0.5% NP40) on anti-c-Myc magnetic beads, eluted with Myc peptide; label-free LC-MS/MS; hits are the proteins that cluster (Mfuzz) with the tagged bait across IP, pellet, supernatant, total and unbound fractions

The chains behind the UniProt entries cited, without tags or fusion partners.
UniProt P53297: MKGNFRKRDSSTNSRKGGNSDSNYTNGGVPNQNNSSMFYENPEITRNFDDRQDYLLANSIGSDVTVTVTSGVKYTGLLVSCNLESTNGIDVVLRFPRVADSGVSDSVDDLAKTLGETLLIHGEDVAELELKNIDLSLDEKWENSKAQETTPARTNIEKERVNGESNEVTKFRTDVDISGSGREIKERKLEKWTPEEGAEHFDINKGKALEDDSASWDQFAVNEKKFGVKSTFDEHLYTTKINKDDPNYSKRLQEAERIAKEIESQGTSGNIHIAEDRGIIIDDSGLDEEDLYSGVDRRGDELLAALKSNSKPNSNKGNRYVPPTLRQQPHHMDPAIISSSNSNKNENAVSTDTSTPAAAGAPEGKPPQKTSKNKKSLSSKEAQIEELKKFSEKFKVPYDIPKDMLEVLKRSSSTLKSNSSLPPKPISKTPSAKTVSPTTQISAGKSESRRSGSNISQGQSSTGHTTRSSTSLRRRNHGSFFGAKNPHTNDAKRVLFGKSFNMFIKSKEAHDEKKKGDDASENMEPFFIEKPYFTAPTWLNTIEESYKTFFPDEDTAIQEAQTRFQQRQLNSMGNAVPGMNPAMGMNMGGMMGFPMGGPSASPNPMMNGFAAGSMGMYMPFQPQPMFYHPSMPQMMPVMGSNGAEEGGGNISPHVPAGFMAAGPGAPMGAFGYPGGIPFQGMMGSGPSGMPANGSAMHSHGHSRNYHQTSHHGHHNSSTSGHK

| Binder | binding |
| --- | --- |
| Nma1 (protein, UniProt Q06178 1-401) MDPTRAPDFKPPSADEELIPPPDPESKIPKSIPIIPYVLADANSSIDAPFNIKRKKKHPKHHHHHHHSRKEGNDKKHQHIPLNQDDFQPLSAEVSSEDDDADFRSKERYGSDSTTESETRGVQKYQIADLEEVPHGIVRQARTLEDYEFPSHRLSKKLLDPNKLPLVIVACGSFSPITYLHLRMFEMALDAISEQTRFEVIGGYYSPVSDNYQKQGLAPSYHRVRMCELACERTSSWLMVDAWESLQPSYTRTAKVLDHFNHEINIKRGGVATVTGEKIGVKIMLLAGGDLIESMGEPNVWADADLHHILGNYGCLIVERTGSDVRSFLLSHDIMYEHRRNILIIKQLIYNDISSTKVRLFIRRAMSVQYLLPNSVIRYIQEHRLYVDQTEPVKQVLGNKE | binds |
| Osh6 (protein, UniProt Q02201 1-448) MGSKKLTVGSDSHRLSKSSFSSNKSSHSATKDQPIDTDDIDEDDESGHNIILNIISQLRPGCDLTRITLPTFILEKKSMLERVTNQLQFPEFLLQAHSEKDPLKRFLYVMKWYLAGWHIAPKAVKKPLNPVLGEYFTAYWDLPNKQQAYYISEQTSHHPPECAYFYMIPESSIRVDGVVIPKSRFLGNSSAAMMDGSTVLQFLDIKDGNGKPEKYVLTQPNVYVRGILFGKMRIELGDHMIIKSPNFQADIEFKTKGYVFGTYDAIEGTVKDYDGNAYYEISGKWNDVMYLKDLKQPRSSPKVFLDTHKESPLRPKVRPLSEQGEYESRKLWKKVTDALAVRNHPVATEEKFQIEDHQRQLAKKRIEDGVEFHPKLFRRSKPGEDLDYCIYKNIPVDEDPEKQIRSILQIAPILPGQQFTDKFFIPAFEKIKSQKKMIENEKQNPAKQ | binds |
| Bud7 (protein, UniProt Q08754 1-746) MITQNSIPEVKEDFIGYALHERRIRLPQFQDLGPADLVTLTKYLPTSSNTNAINSTSRNGAAIIQSPAAVVADDSAASMATNGDASDTAVTTNYTNASIYSSSRNANDGAPMVAELHPLDKLKDEVGTFFYSMGVDTSGPTSIAIFLKEISEVISEKPQVWFGRKKTFNVARISFSTWNAFRRCDINVVVHIPGSIQNFIVDCNGESQNIEMCADYDLIWAETFVSGVVRSIMLMKENAEEGELQNLVETLILNPFTAGQIDDVPEMFIDLFPIVYHKGPLLGAPYYITNVTNTNNYLVETLVEIVKLTRNVSRAEIMLKNLATDNPEAIIILIKIFLVCDQELDAIKLTYDMLSQDKIINNTNNRMDYKSELLCLQAQFLIDKRQDYSLAQNIAQEAVNCSPSEFRPWYLLSKVYVKLNDIENALLILNSCPMSPLKEKYVLKRVAPLPSNNSLHLPLPIDVVLDEVTSLNPQDVQNEHRSADPMLVNLAASNLKSTFQLAYRLLTEIVQITGWENLLKYRSNIFVMEEEYQKSSSSLPKDVNKQEEQPLRAKRLCERWLDNLFMLLYEDLKMYTLWQTEQLYMDAQNNNHNKLTFEWELFGLCARRLGHFPEAAKAFQNGLSQRFSSRCARKLLEYCINERQRVKNFINSPNSHDMVPEIVSSRIRELDNSIIDLCVKICCWNHRWYTEFSISLLDCLSVVIQDMSLTKVSNEISSRYPETVLNLVQENLLNFFTTCTIGCYDA | binds |
| Puf3 (protein, UniProt Q07807 1-879) MEMNMDMDMDMELASIVSSLSALSHSNNNGGQAAAAGIVNGGAAGSQQIGGFRRSSFTTANEVDSEILLLHGSSESSPIFKKTALSVGTAPPFSTNSKKFFGNGGNYYQYRSTDTASLSSASYNNYHTHHTAANLGKNNKVNHLLGQYSASIAGPVYYNGNDNNNSGGEGFFEKFGKSLIDGTRELESQDRPDAVNTQSQFISKSVSNASLDTQNTFEQNVESDKNFNKLNRNTTNSGSLYHSSSNSGSSASLESENAHYPKRNIWNVANTPVFRPSNNPAAVGATNVALPNQQDGPANNNFPPYMNGFPPNQFHQGPHYQNFPNYLIGSPSNFISQMISVQIPANEDTEDSNGKKKKKANRPSSVSSPSSPPNNSPFPFAYPNPMMFMPPPPLSAPQQQQQQQQQQQQEDQQQQQQQENPYIYYPTPNPIPVKMPKDEKTFKKRNNKNHPANNSNNANKQANPYLENSIPTKNTSKKNASSKSNESTANNHKSHSHSHPHSQSLQQQQQTYHRSPLLEQLRNSSSDKNSNSNMSLKDIFGHSLEFCKDQHGSRFIQRELATSPASEKEVIFNEIRDDAIELSNDVFGNYVIQKFFEFGSKIQKNTLVDQFKGNMKQLSLQMYACRVIQKALEYIDSNQRIELVLELSDSVLQMIKDQNGNHVIQKAIETIPIEKLPFILSSLTGHIYHLSTHSYGCRVIQRLLEFGSSEDQESILNELKDFIPYLIQDQYGNYVIQYVLQQDQFTNKEMVDIKQEIIETVANNVVEYSKHKFASNVVEKSILYGSKNQKDLIISKILPRDKNHALNLEDDSPMILMIKDQFANYVIQKLVNVSEGEGKKLIVIAIRAYLDKLNKSNSLGNRHLASVEKLAALVENAEV | binds |

Further lines, results first:

| binding | Binder |
| --- | --- |
| binds | Rpn5 (protein, UniProt Q12250 1-445) MSRDAPIKADKDYSQILKEEFPKIDSLAQNDCNSALDQLLVLEKKTRQASDLASSKEVLAKIVDLLASRNKWDDLNEQLTLLSKKHGQLKLSIQYMIQKVMEYLKSSKSLDLNTRISVIETIRVVTENKIFVEVERARVTKDLVEIKKEEGKIDEAADILCELQVETYGSMEMSEKIQFILEQMELSILKGDYSQATVLSRKILKKTFKNPKYESLKLEYYNLLVKISLHKREYLEVAQYLQEIYQTDAIKSDEAKWKPVLSHIVYFLVLSPYGNLQNDLIHKIQNDNNLKKLESQESLVKLFTTNELMRWPIVQKTYEPVLNEDDLAFGGEANKHHWEDLQKRVIEHNLRVISEYYSRITLLRLNELLDLTESQTETYISDLVNQGIIYAKVNRPAKIVNFEKPKNSSQLLNEWSHNVDELLEHIETIGHLITKEEIMHGLQAK |
| binds | Tat1 (protein, UniProt P38085 1-619) MDDSVSFIAKEASPAQYSHSLHERTHSEKQKRDFTITEKQDEVSGQTAEPRRTDSKSILQRKCKEFFDSFKRQLPPDRNSELESQEKNNLTKSIKSRHLVMISLGTGIGTGLLVGNGQVLGTAGPAGLVLGYGIASIMLYCIIQAAGELGLCYAGLTGNYTRYPSILVDPSLGFAVSVVYTIQWLTVLPLQLVTAAMTVKYWTSVNADIFVAVVFVFVIIINLFGSRGYAEAEFIFNSCKILMVIGFVILAIIINCGGAGDRRYIGAEYWHNPGPFAHGFKGVCTVFCYAAFSYGGIEVLLLSAAEQENPTKSIPNACKKVVYRILLIYMLTTILVCFLVPYNSDELLGSSDSSGSHASPFVIAVASHGVKVVPHFINAVILISVISVANSSLYSGPRLLLSLAEQGVLPKCLAYVDRNGRPLLCFFVSLVFGCIGFVATSDAEEQVFTWLLAISSLSQLFIWMSMSLSHIRFRDAMAKQGRSMNEVGYKAQTGYWGSWLAVLIAIFFLVCQFWVAIAPVNEHGKLNVKVFFQNYLAMPIVLFAYFGHKIYFKSWSFWIPAEKIDLDSHRNIFVSPSLTEIDKVDDNDDLKEYENSESSENPNSSRSRKFFKRMTNFWC |
| binds | Rpf2 (protein, UniProt P36160 1-344) MIRTVKPKNARAKRALVKREAKLVENVKQALFIPGQSCNKNLHDIMVDLSALKKPDMKRFNRKNDIHPFEDMSPLEFFSEKNDCSLMVLMTSSKKRKNNMTFIRTFGYKIYDMIELMVADNFKLLSDFKKLTFTVGLKPMFTFQGAAFDTHPVYKQIKSLFLDFFRGESTDLQDVAGLQHVISMTIQGDFQDGEPLPNVLFRVYKLKSYKSDQGGKRLPRIELVEIGPRLDFKIGRIHTPSPDMVTEAHKKPKQLEMKTKKNVELDIMGDKLGRIHMGKQDLGKLQTRKMKGLKSKFDQGTEEGDGEVDEDYEDEASYSDDGQEYEEEFVSATDIEPSAKRQKK |
| binds | Ssh1 (protein, UniProt P38353 1-490) MSGFRLIDIVKPILPILPEVELPFEKLPFDDKIVYTIFAGLIYLFAQFPLVGLPKATTPNVNDPIYFLRGVFGCEPRTLLEFGLFPNISSGLILQLLAGLKVIKVNFKIQSDRELFQSLTKVFAIVQYVILTNIFIFAGYFGDDLSVVQIGLINFQLVGAGIFTTLLAEVIDKGFGFSSGAMIINTVVIATNLVADTFGVSQIKVGEDDQTEAQGALINLIQGLRSKHKTFIGGIISAFNRDYLPNLTTTIIVLAIAIIVCYLQSVRVELPIRSTRARGTNNVYPIKLLYTGCLSVLFSYTILFYIHIFAFVLIQLVAKNEPTHIICKIMGHYENANNLLAVPTFPLSLLAPPTSFFKGVTQQPLTFITYSAFILVTGIWFADKWQAISGSSARDVALEFKDQGITLMGRREQNVAKELNKVIPIAAVTGASVLSLITVIGESLGLKGKAAGIVVGIAGGFSLLEVITIEYQQSGGQSALNQVLGVPGAM |
| binds | Rrb1 (protein, UniProt Q04225 1-511) MSKRSIEVNEEQDRVVSAKTESHSVPAIPASEEQDAPKNDLEEQLSDEFDSDGEIIEIDGDDEINDEDDLRKKQEEAETLVQKDQSEGNKEKIQELYLPHMSRPLGPDEVLEADPTVYEMLHNVNMPWPCLTLDVIPDTLGSERRNYPQSILLTTATQSSRKKENELMVLALSNLAKTLLKDDNEGEDDEEDDEDDVDPVIENENIPLRDTTNRLKVSPFAISNQEVLTATMSENGDVYIYNLAPQSKAFSTPGYQIPKSAKRPIHTVKNHGNVEGYGLDWSPLIKTGALLSGDCSGQIYFTQRHTSRWVTDKQPFTVSNNKSIEDIQWSRTESTVFATAGCDGYIRIWDTRSKKHKPAISVKASNTDVNVISWSDKIGYLLASGDDNGTWGVWDLRQFTPSNADAVQPVAQYDFHKGAITSIAFNPLDESIVAVGSEDNTVTLWDLSVEADDEEIKQQAAETKELQEIPPQLLFVHWQKEVKDVKWHKQIPGCLVSTGTDGLNVWKTISV |

Reference: publication PMC8782181
